Data as given in PubChem BioAssay AID488837 (National Center for Advancing Translational Sciences (NCATS), 2010).
The campaign covered roughly 330,000 compounds. About 20 (0.006%) were called active. Inconclusive results, whose numbers are uncertain, are shown with a selection of clear calls. The call rests on the fitted dose curve; in most records, active means well fitted inhibition curve with a large enough effect; inconclusive means small, poorly fitted or top-dose-only effect, or effect the other way; inactive means flat fitted curve, though single readings scatter. A potency beside an inconclusive call is a rough fit, not a confirmed value. Square brackets hold non-standard residues; d marks the D form. Peptide text beside a SMILES is read from it. * marks the point of attachment. ξ: configuration not given here. ξF = NC(Cc1ccccc1)C(=O)O; Cbz = O=C(OCc1ccccc1)*

Chains of the proteins cited; added tags and fusions are not shown. Lines headed by an entry give the natural chain unless they say otherwise; changes in a name come on top.
UniProt O00167: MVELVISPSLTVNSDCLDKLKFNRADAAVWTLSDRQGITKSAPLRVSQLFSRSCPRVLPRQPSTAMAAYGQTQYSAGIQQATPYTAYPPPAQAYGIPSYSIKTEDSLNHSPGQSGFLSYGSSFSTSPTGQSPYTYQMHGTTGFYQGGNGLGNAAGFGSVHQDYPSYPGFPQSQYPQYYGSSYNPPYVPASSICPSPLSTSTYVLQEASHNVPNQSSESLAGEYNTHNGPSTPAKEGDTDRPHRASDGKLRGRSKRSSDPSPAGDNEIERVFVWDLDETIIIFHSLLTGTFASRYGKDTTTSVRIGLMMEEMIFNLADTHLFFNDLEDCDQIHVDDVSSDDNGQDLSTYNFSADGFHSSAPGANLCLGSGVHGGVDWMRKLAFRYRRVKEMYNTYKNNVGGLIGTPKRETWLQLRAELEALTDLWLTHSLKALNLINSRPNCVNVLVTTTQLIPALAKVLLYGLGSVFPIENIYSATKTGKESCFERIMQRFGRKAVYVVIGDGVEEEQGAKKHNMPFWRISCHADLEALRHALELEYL

The compounds below were run against Protein phosphatase EYA2 (Homo sapiens) (UniProt O00167) (assay: qHTS Assay for Inhibitors of the Phosphatase Activity of Eya2). Details: recombinant Eya2, OMFP fluorescence dephosphorylation (OMFP is methylfluorescein phosphate).
Procedure, shortened: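 Eya2 (0.2 uM) preincubated 10 min at ambient with compound, then OMFP substrate added at 50 uM; 10 min reaction in 50 mM HEPES pH 7.5, 50 mM NaCl, 5 uM MgCl2, 0.05% BSA, 1 mM DTT. Fluorescence read at Ex 485/Em 525 nm.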
Potency means the concentration at half of the fitted maximal effect.

SMILES | Potency
CC(=O)c1ccc(N2CCN(C(=O)c3cccc(Oc4ccccc4)c3)CC2)cc1 | inconclusive: 22.4 µM [inhibitor, single point]
O=C(Nc1ccc(F)cc1)c1nc[nH]c1C(=O)O | inactive
Fc1ccc(NC(=S)Nc2cccc3ccccc23)cc1 | inconclusive: 20 µM [inhibitor, partial curve]
COc1ccccc1-c1nc2s/c(=C\c3cccs3)c(=O)n2n1 | inactive
COc1ccc(OC)c(NC(=O)Cn2cccc2)c1 | inconclusive: 20 µM [inhibitor, single point]
CSc1ccccc1NC(=O)CSc1n[nH]c(N)n1 | inconclusive: 631 µM [inhibitor, partial curve, poor fit]
CN(C(=O)Cn1nnc(-c2cccnc2)n1)C1CCCCC1 | inconclusive: 79.4 µM [inhibitor, partial curve, poor fit]
C[n+]1cn(CC(O)COCc2ccccc2)c2ccccc21 (stereo not drawn) | inactive
Cc1ccc(S(=O)(=O)N(C)C)cc1NC(=O)c1cc(=O)[nH]c2ccccc12 | inconclusive: 17.8 µM [inhibitor, single point]
Cc1nn(-c2ccccn2)c(N)c1N=O | inconclusive: 22.4 µM [inhibitor, single point]
CCCCCCCCCCCCCCCC[n+]1cccc2ccccc21 | inconclusive: 63.1 µM [inhibitor, single point]
CCCCNc1nc2ccccc2nc1NS(=O)(=O)c1ccc(F)cc1 | inconclusive: 100 µM [inhibitor, single point]
O=C(Nc1ccc2c(c1)OCCO2)C1CCCN(S(=O)(=O)c2cnc[nH]2)C1 (stereo not drawn) | inconclusive: 12.6 µM [inhibitor, single point]
CCOC(=O)CNC(=O)C(Cc1ccccc1)NC(=O)OCc1ccccc1 (stereo not drawn) (Cbz-[ξF]-Gly-OEt) | inconclusive: 501 µM [inhibitor, partial curve, poor fit]
O=C(c1cc(-c2ccccc2Cl)on1)N1CCCC1 | inconclusive: 224 µM [inhibitor, partial curve]
O=C(Nn1cnnc1)c1ccc(Cl)c([N+](=O)[O-])c1 | inconclusive: 3980 µM [inhibitor, partial curve, poor fit]
S=C(Nc1ccccc1)N1CCC(Cc2ccccc2)CC1 | inconclusive: 17.8 µM [inhibitor, single point]
C=CCOc1ccccc1C1C2=C(CC(C)(C)CC2=O)Nc2c1c(=O)n(C)c(=O)n2C (stereo not drawn) | inactive
CC(=O)Nc1ccc(C2=NNC(=Nc3ccc(S(=O)(=O)N4CCOCC4)cc3)SC2)cc1 | inactive
O=C1C(Cl)=C(NCc2cccnc2)C(=O)c2ccccc21 | inconclusive: 100 µM [inhibitor, single point]
COc1ccccc1CC(=O)Nc1cccc(S(=O)(=O)N2CCOCC2)c1 | inactive
Cc1ccc(NC(=O)CCS(=O)(=O)c2ccc3c(c2)NC(=O)C(C)S3)cc1Cl (stereo not drawn) | inconclusive: 70.8 µM [inhibitor, single point]

Shown with tabs: entries from further up.
SMILES	Potency
CCCCNc1nc2ccccc2nc1NS(=O)(=O)c1ccc(F)cc1	inconclusive: 100 µM [inhibitor, single point]
O=C(Nc1ccc2c(c1)OCCO2)C1CCCN(S(=O)(=O)c2cnc[nH]2)C1 (stereo not drawn)	inconclusive: 12.6 µM [inhibitor, single point]

Remaining list, next part.

SMILES | Potency
CCCCOC(=O)c1nnc(-c2ccccc2)o1 | inconclusive: 70.8 µM [inhibitor, partial curve, poor fit]
O=C(Nc1ccc(COc2ccccc2)cc1)Nc1cccc(C(=O)O)c1 | inconclusive: 22.4 µM [inhibitor, partial curve, poor fit]
CCc1ccc2c(c1)C(O)(CC(=O)c1cccs1)C(=O)N2 (stereo not drawn) | inconclusive: 891 µM [inhibitor, single point]
COC(=O)C(NC(=O)c1ccc(F)cc1)(Nc1ncc(S(=O)(=O)c2ccc([N+](=O)[O-])cc2)s1)C(F)(F)F (stereo not drawn) | inconclusive: 22.4 µM [inhibitor, single point]
Cc1c(CCC(=O)O)c(=O)oc2cc3occ(-c4ccc(Br)cc4)c3cc12 | inactive
Cc1ccc(C)c(Cn2nc3c4ccccc4n(Cc4ccccc4)cc-3c2=O)c1 | inconclusive: 22.4 µM [inhibitor, single point]
Cc1ccc(-n2c(CCC(=O)O)ccc2-c2cccs2)cc1 | inactive
CCN(CC)CCn1c(SCC(=O)NCc2ccccc2)nc2c(sc3ccccc32)c1=O | inconclusive: 224 µM [inhibitor, partial curve, poor fit]
O=C(COC(=O)c1cn(-c2ccccc2)nc1-c1ccccc1)Nc1ncc(Cl)cc1Cl | inconclusive: 224 µM [inhibitor, partial curve]
CC(C)c1ccc(NC(=O)c2ccc(NS(C)(=O)=O)cc2)cc1 | inconclusive: 100 µM [inhibitor, single point]
CCCCCCCCCCCCCCCC[N+](C)(C)CCN(Cc1ccc(OC)cc1)c1ncccn1 | inconclusive: 44.7 µM [inhibitor, single point]
S=C(N/N=C/c1cccc2ccccc12)Nc1cccc(Cl)c1 | inconclusive: 100 µM [inhibitor, partial curve]
CN(C(=O)COC(=O)CSc1ccc([N+](=O)[O-])cc1)c1ccccc1 | inactive
COc1cccc(CNC(=O)c2cc3c(C)nc4ccccc4c3o2)c1 | inactive
COc1cccc(OC)c1NC(=O)NC(=O)c1c(OC)c(Br)cc([N+](=O)[O-])c1OC | inconclusive: 20 µM [inhibitor, single point]
CSc1ccc(/C=N/n2c(C)nc3ccccc3c2=O)cc1 | inconclusive: 17.8 µM [inhibitor, single point]
O=S(=O)(Cc1cc(Sc2ccccc2)nc(-c2ccccc2)n1)c1ccccc1 | inconclusive: 178 µM [inhibitor, partial curve, poor fit]
CC1=CC(C)(C)N(C(=O)CSc2nnc(N)s2)c2c(C)cc(C)cc21 | inactive
O=C1CN(C(=O)N[C@@H](Cc2ccccc2)C(=O)N[C@H](Cc2ccccc2)C(=O)O)c2ccccc2N1 | inconclusive: 126 µM [inhibitor, single point]
CC(=O)NC1=NN(C(C)=O)C(C)(c2ccc3ccccc3c2)S1 (stereo not drawn) | inactive
CCOC(=O)N1CCc2c(sc(NC(=O)c3ccc(S(=O)(=O)N4CCCC4)cc3)c2C#N)C1 | inactive
COc1ccc(-c2nc(CNS(=O)(=O)c3ccc(OC)c(OC)c3)cs2)cc1 | inconclusive: 15.8 µM [inhibitor, single point]
Cc1n[nH]c(=O)c2c(NC(=O)CSc3nnc(-c4ccncc4)n3C)oc(C)c12 | inactive

SMILES | Potency
CCOc1ccc(OCC(O)CN2CCN(S(=O)(=O)c3cccc(C(F)(F)F)c3)CC2)cc1 (stereo not drawn) | inconclusive: 100 µM [inhibitor, single point]
COc1ccc(C2=CC(=O)N(Nc3ccccc3)C2=O)cc1 | inconclusive: 112 µM [inhibitor, single point]
COC1(OC)N=C(N)C2(C#N)C(c3ccc(C)cc3)C12C#N (stereo not drawn) | inconclusive: 79.4 µM [activator, partial curve, poor fit]
CC(NC(=O)/C(=C\c1ccco1)NC(=O)c1ccco1)C(=O)O (stereo not drawn) | inactive
Cc1cc(C)c2nc(-c3ccncc3)cc(C(=O)N3CCN(Cc4ccccc4Cl)CC3)c2c1 | inconclusive: 100 µM [inhibitor, single point]
CCC(C(=O)OC)n1cnc2c(nnn2-c2ccc(C)cc2)c1=O (stereo not drawn) | inconclusive: 22.4 µM [inhibitor, single point]
Clc1ccc(N/N=C/c2cccnc2)cc1 | inactive
NC(=O)c1ccc(N=Cc2ccc([N+](=O)[O-])s2)cc1 | inactive
CCc1ccc(C(=O)c2oc3nc(C)cc(C)c3c2N)cc1 | inconclusive: 22.4 µM [inhibitor, single point]
CC(C)CCNC(=O)COc1cccc2c1OC(C)(C)C2 | inconclusive: 31.6 µM [inhibitor, partial curve]
O=C(c1ccc(NS(=O)(=O)c2ccc(Cl)c(Cl)c2)cc1)N1CCOCC1 | inconclusive: 12.6 µM [inhibitor, single point]
CC(C)(C)c1nnc(NC(=O)CCS(=O)(=O)c2ccccc2)s1 | inconclusive: 17.8 µM [inhibitor, single point]
COc1ccc(-n2c(SCC(=O)O)nnc2-c2ccc(NC(=O)c3ccccc3)cc2)cc1 | inconclusive: 25.1 µM [inhibitor, single point]
CC(C)CNC(=S)N(Cc1ccco1)Cc1cc2cc3c(cc2[nH]c1=O)OCCO3 | inactive
O=C(CSc1n[nH]c(-c2ccco2)n1)Nc1ccc(F)cc1 | inconclusive: 158 µM [inhibitor, single point]
CN1CCN(S(=O)(=O)c2ccc(NCc3ccc4c(c3)OCO4)nc2)CC1 | inconclusive: 20 µM [inhibitor, single point]
O=C(C[n+]1cc(-c2ccc(F)cc2)n2c1CCC2)c1cccs1 | inconclusive: 22.4 µM [inhibitor, single point]
Cc1cc(NC(=O)c2c([N+](=O)[O-])c(C)nn2C)no1 | inconclusive: 112 µM [inhibitor, partial curve]
CCc1nc(SCC(=O)N2CC(=O)Nc3ccccc32)c2c(C)c(C)sc2n1 | inconclusive: 12.6 µM [inhibitor, partial curve, poor fit]
Cc1ccc(-n2c(O)cnc2Nc2nc(C)cc(C)n2)cc1 | inconclusive: 15.8 µM [inhibitor, single point]
Cc1cc(NCc2ccncc2)ccc1Br | inconclusive: 89.1 µM [inhibitor, single point]
CCCCn1c(SCC(=O)NCCOC)nc2ccc(N3CCOCC3)cc2c1=O | inactive
